PubChem BioAssay AID1671195, Yale University, 2021

- Aim: 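Knockdowns that increase or decrease uptake of fluorescent LDL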 (primary screen)
- Cells: human Huh7 hepatoma cells
- Reagents: siRNA pool against human genes, 18 nM
- Time to read-out: about 2 to 2.5 days of knockdown, then 8 h LDL uptake
- Challenge: DiI-labelled LDL at 30 µg/ml for 8 h, in lipoprotein-deficient serum medium
- Measurement: 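Fluorescent LDL signal imaged in cells, scaled to the plate median, robust z-score for each replicate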
- Reading the numbers: robust z-score: higher = more LDL uptake after knockdown
- Rule for the call: 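Active when two or more replicates show a robust z-score above 2 or below -2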
Shown is a random part of about 22,000 reagents tested. About 1,510 of all reagents (6.9%) count as active. 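Active includes knockdowns raising or lowering LDL uptake; positive z-scores mean more uptake, negative mean less.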 Unmarked entries are inactive.

target gene	robust z-score, replicate 1	robust z-score, replicate 2	robust z-score, replicate 3
SRI (sorcin)	-0.38	-0.999	-0.615
GTF3C4 (general transcription factor IIIC subunit 4)	-0.524	-1.8	-2.06
MUC4 (mucin 4, cell surface associated)	2.7 (active)	2.66	2.1
PITPNM3 (PITPNM family member 3)	-0.991	-0.719	-0.778
CHEK1 (checkpoint kinase 1)	-1.24	-0.315	-0.874
KDELR2 (KDEL endoplasmic reticulum protein retention receptor 2)	-0.33	0.367	0.174
CACNA1G (calcium voltage-gated channel subunit alpha1 G)	-1.58	-1.62	-1.87
DNAJC7 (DnaJ heat shock protein family (Hsp40) member C7)	2.05	1.25	1.67
ALKAL1 (ALK and LTK ligand 1)	-0.106	-0.0616	-0.217
OR5M10 (olfactory receptor family 5 subfamily M member 10)	0.312	0.672	0.8
COX5A (cytochrome c oxidase subunit 5A)	-0.14	0.307	-0.172
SLIT1 (slit guidance ligand 1)	-0.0654	-0.228	-0.309
FSD2 (fibronectin type III and SPRY domain containing 2)	1.53	1.43	2.11
BCAR3 (BCAR3 adaptor protein, NSP family member)	0.0457	-0.117	-1.33
NLRC5 (NLR family CARD domain containing 5)	0.237	0.0803	0.813
PPA2 (inorganic pyrophosphatase 2)	-1.52	-1.6	-0.888
RPS27A (ribosomal protein S27a)	-0.897	-0.398	-1.09
RLBP1 (retinaldehyde binding protein 1)	2.96 (active)	3.4	3.64
SSTR5-AS1 (SSTR5 antisense RNA 1)	1.88 (active)	2.13	2.45
PPP1CA (protein phosphatase 1 catalytic subunit alpha)	0.161	0.0705	0.393
COX6A1 (cytochrome c oxidase subunit 6A1)	-1.33	-1.55	-1.56
ABL1 (ABL proto-oncogene 1, non-receptor tyrosine kinase)	0.692	1.19	0.0541
HNRNPKP1 (heterogeneous nuclear ribonucleoprotein K pseudogene 1)	-1.6	-1.33	-1.57
CA1 (carbonic anhydrase 1)	1.61	1.56	1.84
SH3GLB2 (SH3 domain containing GRB2 like, endophilin B2)	0.261	1.94	2.44
AMY2B (amylase alpha 2B)	1.3	1.32	0.501
B9D2 (B9 domain containing 2)	-0.12	0.855	-0.103
LOC391427 (retired record)	0.535	-0.186	-0.444
